Experimental data published in PubChem BioAssay AID202 (DTP/NCI, 2004).
The list is a part of this screen's results and no random one: its compounds were picked by chemical class. Other doses and runs of a compound may be missing. T/C is the treated group as % of the vehicle group. Schedules are NCI's codes, taken here to give the interval after Q, in days (D) or hours (H), and the number of doses after X. Some T/C values carry the count of animals alive at the toxicity check; where neither a count nor a note follows, no animal had died by that day. Some entries give survivors of the animals treated and no T/C: the source holds a T/C of zero for them, seemingly a mark for toxic or unscored doses. Survivors were counted at the toxicity check; its day is shown where the source gives one, and later deaths do not show.

Tested on: HT29 xenograft, nude mice, s.c., tumor weight T/C%
Experiment: NCI In Vivo Anticancer Drug Screen. Data for tumor model HT29;CX-1 Human Adenocarcinoma (MER+) (subcutaneous) in NU/NU Swiss (nude) mice
Conditions: T/C endpoint: optimum tumor weight change, schedule: Q04DX003 (ip), higher T/C = larger tumour
Method: The antitumor activity of compounds was measured in mice bearing transplantable tumors. Survival or tumor size were measured and the results are expressed as the measurement made in the treated group (T) divided by the measurement made in the vehicle treated control group (C). The tumor model used in this assay is HT29;CX-1 Human Adenocarcinoma (MER+) (subcutaneous) in NU/NU Swiss (nude) mice

In the case of C[N+](CCCl)(CCCl)Cc1ccc([N+](=O)[O-])cc1, the T/C (dose: 25.0 mg/kg/injection, vehicle: saline, evaluated on day 35) is reported as 106 % of control.
With ClCCN(CCCl)c1ccccc1 the T/C (dose: 25.0 mg/kg/injection, vehicle: saline with Tween-80, evaluated on day 32) was 95 % of control, the T/C (dose: 50.0 mg/kg/injection, vehicle: saline with Tween-80, evaluated on day 32) was 67 % of control and the T/C (dose: 100.0 mg/kg/injection, vehicle: saline with Tween-80, evaluated on day 32) was 65 % of control [4 of 5 alive on day 34]. The survivor count (dose: 200.0 mg/kg/injection, vehicle: saline with Tween-80) was 0 of 5 on day 34.
For CC1=CC(=O)C(N(CCCl)CCCl)=CC1=O, the T/C (dose: 0.37 mg/kg/injection, vehicle: Klucel (hydroxypropylcellulose) (HPC), evaluated on day 34) was 102 % of control, the T/C (dose: 0.75 mg/kg/injection, vehicle: Klucel (hydroxypropylcellulose) (HPC), evaluated on day 34) was 91 % of control and the T/C (dose: 1.5 mg/kg/injection, vehicle: Klucel (hydroxypropylcellulose) (HPC), evaluated on day 34) was 57 % of control. The T/C (dose: 3.0 mg/kg/injection, vehicle: Klucel (hydroxypropylcellulose) (HPC), evaluated on day 34) was 102 % of control.
